In all, about 33,000 sequences were measured (“E-score (-0.5 to 0.5)”: median about -0.0014, highest 2% from about 0.25 on). Some of the results follow.
The sequences below were run against T1, Cad1 (UniProt P24813) (assay: PBM E-score (8-mer binding enrichment) (E-score (-0.5 to 0.5)); higher = stronger / more preferred TF binding). Settings: protein concentration: 100 nM; construct: GST-full length.
T1 sequence: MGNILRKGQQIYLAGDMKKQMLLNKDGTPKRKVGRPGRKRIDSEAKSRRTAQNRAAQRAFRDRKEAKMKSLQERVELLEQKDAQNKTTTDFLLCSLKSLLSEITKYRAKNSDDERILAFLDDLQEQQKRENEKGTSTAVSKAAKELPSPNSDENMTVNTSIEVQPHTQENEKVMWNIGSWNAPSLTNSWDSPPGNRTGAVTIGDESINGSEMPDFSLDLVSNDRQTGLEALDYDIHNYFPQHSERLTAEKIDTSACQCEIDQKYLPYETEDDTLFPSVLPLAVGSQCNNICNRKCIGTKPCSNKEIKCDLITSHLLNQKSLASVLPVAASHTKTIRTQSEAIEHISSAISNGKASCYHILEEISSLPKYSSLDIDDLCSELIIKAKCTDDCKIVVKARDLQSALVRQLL
Method: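 Universal 'all 10-mer' protein binding microarrays (Agilent AMADID 015681) probed with GST-tagged S. cerevisiae TFs (full-length or DBD) made by in vitro transcription/translation (PURExpress), about 100-200 nM. Bound TF was detected with fluorescent anti-GST. Each ungapped 8-mer (which stands for itself and its reverse complement) is scored by the PBM enrichment score (E-score), a modified Wilcoxon-Mann-Whitney statistic from -0.5 to +0.5, computed with the Universal PBM Analysis Suite. Scale: above 0.35 generally sequence-specific binding.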

Sequence	PBM E-score
AGCACCGC	-0.0637
ACCGCACC	0.0104
AACCATAA	-0.0319
TCATTCAA	0.13
GTGTCGGA	-0.0787
GGAGTGAA	-0.116
TAGAAGCA	-0.0973
AGGTGTTG	0.00353
GTACTGAA	0.234
ACAATGGC	-0.00507
CTGGCCGA	-0.299
CTGGCAGC	-0.143
AGCATTTA	-0.0909
ACGCGTCC	-0.0174
CGGATCCC	0.017
AGACTTGC	-0.163
GACCCGAA	-0.124
CCTAAGGC	-0.181
ACGTCCCG	-0.0437
GATAGGCC	-0.0295
GATTACCC	0.215
CAAAATCG	0.114
ACCGCCAT	-0.063
CTTCGCCA	-0.104
AAGCCCAC	-0.0637

Copied from the list.
ACCGCCAT – PBM E-score: -0.063
AGACTTGC – PBM E-score: -0.163
AGCATTTA – PBM E-score: -0.0909
TAGAAGCA – PBM E-score: -0.0973
AGGTGTTG – PBM E-score: 0.00353
GATAGGCC – PBM E-score: -0.0295
CGGATCCC – PBM E-score: 0.017

More results:

Sequence	PBM E-score
CAATCATG	0.175
ACCATGCA	0.122
GATTCGCA	0.205
GCGAGACA	-0.205
CAATCATC	-0.0285
AGTTCTGG	0.0925
CACACGCC	0.0737
AGGCGCAT	0.0534
AGTCACGG	0.0469
CTAATTCC	0.137
GTCTTCTA	-0.0184
CGCTTTGC	0.126
AGAAAGGG	-0.208
GGCTAATA	0.123
CAAGCGCG	0.0798
AAGCAGTA	-0.0768
CACCTAAA	0.0285
CATGGTCA	0.106
GCGTAGCC	-0.11
ATCGAGAA	0.194
AGGAGGTG	-0.208
ACAAGCTG	0.101
CGAGATCC	0.0835
TGTTATAA	0.253
GCGGAGAA	0.0409

Sequence	PBM E-score
AATGGACA	0.056
ATTCACGG	0.0384
AGCTAGTG	-0.0897
GTTAAGAA	-0.0381
CCTCGTGA	0.016
AACCCAAT	-0.0923
CAACCCAC	0.00919
CCCTGTAC	-0.22
CCGACAAA	0.0538
CCGAGAAG	-0.0688
AGTTCACG	-0.0961
CCTGGCGC	0.0094
CAACTCCC	-0.0301
CGCTTCGC	-0.0714
AAGTTCAC	0.0544
ATAGTGTC	0.111
CGGTGAGC	-0.13
CCTGTCTA	0.0127
CGCAAGTA	0.182
AACCGAAC	0.0766
CCGCTCGA	-0.00781
GCACTTCA	0.078
CCTCGAAC	-0.0906
CTCTCGGA	0.0354
CATATAAA	0.0106

Sequence	PBM E-score
TCTGAAAA	-0.0126
ATGCAAAA	0.11
GAGCCACC	-0.208
CATCACCG	-0.0817
CGGATCTC	0.109
CCCATCCG	-0.125
CATTATGC	0.0922
GGGACACA	-0.066
CCCATATA	0.0495
AGTGAAAC	0.136
GAGTTACA	-0.00694
CATATGAC	0.067
ATATTCTC	0.102
ATTTCTTG	0.207
ACAAGGTC	-0.185
ATCCATCC	0.0574
GACGCAAC	0.00558
AAGTCCAT	-0.0274
GTAAGCCA	0.128
CATCATGC	0.0814
AAGCGGAA	0.137
AGTTAATC	0.161
AGTCAACG	-0.0686
ATGGAACG	-0.0699
GAAAACAC	0.0902

Sequence	PBM E-score
ATCCAGAC	-0.0739
GCACCAAA	-0.0001
CTTAGTAC	-0.0286
AGAGGTGA	-0.069
ACGCCCTA	-0.16
AGCCGTGA	0.112
ACAGTTAA	0.00177
AGTTGCGG	0.181
ATTAGGAC	-0.102
TCTTACAA	0.0371
CAACGAAA	0.162
ACGGGAGG	-0.173
GTTAATCA	0.318
CCAAGTTC	-0.121
GTGTTCCA	-0.115
CGGCCCTA	0.0924
GCCGCTCA	-0.0172
GTAAACTA	0.108
GCACCAGC	-0.0881
ACCCTCAG	-0.0435
GCGAGCGA	0.196
AATGTGGC	0.0121
AAGATACT	-0.0176
ATCGCATG	0.0414
ATAATGTG	0.15

Sequence	PBM E-score
ACGACAGC	-0.0181
AATAGATT	0.0615
CACCCTAG	0.111
CGATTAAG	0.106
CGTATAAG	-0.104
ATCTGACG	-0.142
CGTGTCGA	0.181
GCAATAAA	0.2
AATATACG	-0.159
AGCCTACC	-0.282
CAGGCAAC	0.00195
CATAACTC	-0.0187
CTGGTCAC	-0.0271
CAGGCTAC	-0.078
CGCATATC	0.318
GCCCCAGA	-0.158
CATGATCG	0.00824
CCACACCC	-0.0237
TACTCCCA	0.0842
ATAAATTC	0.091
AACAAGGT	-0.0755
AAGTCTAC	-0.0687
CCGCACTC	0.122
AAGCATAT	0.189
AACCTTCA	0.0626

Sequence	PBM E-score
CGGCTAGA	0.00637
ACCGGACA	-0.101
CAAAGCCC	-0.219
AGGAGTTG	0.031
ACGTGGAC	-0.0819
AACACTTC	0.208
CCCCGCGC	-0.194
GCCCGGGA	0.0735
ACCACCCT	-0.126
CTATGGGC	-0.0219
ATCGGCAC	0.154
GGCCTTCA	0.0667
AAATGGAG	0.137
CACGTATG	-0.0924
CGGAATCA	0.237
GCTTGTCA	0.13
CTCCCACA	-0.237
CGTACCGC	0.0948
ACACGGGA	-0.0408
CAATTTGG	0.0507
AACCGACA	0.156
GCCTCCCA	-0.32
